Drawing on article PMC11612967, this text covers binding for five molecules.

Experiment [1] addresses T1, H. sapiens Nse1 (H. sapiens) (UniProt Q8WV22).
T1 sequence: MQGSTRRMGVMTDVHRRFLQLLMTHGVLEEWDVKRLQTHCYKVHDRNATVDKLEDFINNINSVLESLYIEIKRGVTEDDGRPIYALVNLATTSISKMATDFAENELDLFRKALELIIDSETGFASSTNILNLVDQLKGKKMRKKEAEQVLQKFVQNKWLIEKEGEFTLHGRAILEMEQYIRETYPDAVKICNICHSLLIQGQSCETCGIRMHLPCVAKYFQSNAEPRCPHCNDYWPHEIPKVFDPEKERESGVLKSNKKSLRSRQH
In words: pull-down; H. sapiens Smc5/6 subunits co-expressed in transfected HEK293 cells (10-ml scale), one subunit tagged (N- or C-terminal); lysis buffer with Benzonase and protease inhibitors, processed as for the small-scale expression in E. coli; Coomassie-stained SDS-PAGE.

Experiment [2] has as its target T2, H. sapiens Nse2 (H. sapiens) (UniProt Q96MF7).
T2 sequence: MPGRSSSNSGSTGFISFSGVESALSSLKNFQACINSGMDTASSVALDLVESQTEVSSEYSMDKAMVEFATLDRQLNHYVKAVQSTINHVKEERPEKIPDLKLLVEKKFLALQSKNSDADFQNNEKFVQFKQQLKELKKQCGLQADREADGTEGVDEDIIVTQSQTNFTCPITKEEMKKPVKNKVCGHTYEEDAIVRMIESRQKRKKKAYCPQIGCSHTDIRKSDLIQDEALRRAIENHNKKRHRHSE
Described as above.

Experiment [3] has as its target T3, H. sapiens Nse3 (H. sapiens) (UniProt Q96MG7).
T3 sequence: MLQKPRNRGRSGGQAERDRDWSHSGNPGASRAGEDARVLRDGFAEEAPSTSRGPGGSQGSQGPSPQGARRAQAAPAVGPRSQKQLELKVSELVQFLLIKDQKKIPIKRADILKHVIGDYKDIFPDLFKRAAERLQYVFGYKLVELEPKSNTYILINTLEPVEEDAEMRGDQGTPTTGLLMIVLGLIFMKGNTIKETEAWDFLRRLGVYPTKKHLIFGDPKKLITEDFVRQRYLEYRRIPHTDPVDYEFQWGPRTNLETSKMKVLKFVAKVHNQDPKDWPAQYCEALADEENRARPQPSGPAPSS
The experiment is described as above.

For experiment [4], the target named is T4, H. sapiens Smc6 (H. sapiens) (UniProt Q96SB8).
T4 sequence: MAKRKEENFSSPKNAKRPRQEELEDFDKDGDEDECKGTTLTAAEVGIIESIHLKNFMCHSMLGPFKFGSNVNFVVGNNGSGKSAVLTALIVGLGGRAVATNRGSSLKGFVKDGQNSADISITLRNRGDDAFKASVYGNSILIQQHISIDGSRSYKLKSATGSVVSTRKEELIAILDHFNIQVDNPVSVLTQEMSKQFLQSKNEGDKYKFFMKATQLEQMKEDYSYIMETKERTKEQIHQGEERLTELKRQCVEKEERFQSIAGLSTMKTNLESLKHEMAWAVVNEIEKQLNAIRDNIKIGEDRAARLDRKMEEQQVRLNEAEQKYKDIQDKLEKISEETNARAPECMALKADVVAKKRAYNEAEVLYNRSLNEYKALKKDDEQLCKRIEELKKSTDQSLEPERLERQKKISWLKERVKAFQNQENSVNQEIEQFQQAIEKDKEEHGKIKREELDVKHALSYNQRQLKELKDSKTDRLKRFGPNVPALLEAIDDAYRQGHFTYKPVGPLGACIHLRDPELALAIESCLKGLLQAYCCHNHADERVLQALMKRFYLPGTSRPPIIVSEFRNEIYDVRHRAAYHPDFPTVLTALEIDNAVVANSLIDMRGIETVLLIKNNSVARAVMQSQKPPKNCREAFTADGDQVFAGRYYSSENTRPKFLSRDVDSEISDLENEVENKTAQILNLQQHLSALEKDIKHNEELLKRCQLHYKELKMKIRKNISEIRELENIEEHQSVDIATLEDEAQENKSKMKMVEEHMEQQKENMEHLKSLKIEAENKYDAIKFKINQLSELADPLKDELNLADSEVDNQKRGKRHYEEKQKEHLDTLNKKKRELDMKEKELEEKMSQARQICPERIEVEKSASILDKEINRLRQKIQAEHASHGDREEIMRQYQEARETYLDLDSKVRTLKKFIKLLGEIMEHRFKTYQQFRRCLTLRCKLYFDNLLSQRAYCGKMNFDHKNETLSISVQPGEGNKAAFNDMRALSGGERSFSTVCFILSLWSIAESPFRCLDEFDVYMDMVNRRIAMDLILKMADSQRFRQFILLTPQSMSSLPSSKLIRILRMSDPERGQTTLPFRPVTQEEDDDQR
The experiment is described as above.

Experiment [5] has as its target H. sapiens Nse4 (H. sapiens). In words: SEC; large scale, 1 liter HEK293 culture; Nse4 with C-terminal Twin-Strep tag; StrepTrap in 50 mM Tris-HCl pH 7.5, 300 mM NaCl, 5% glycerol, then Superose 6 Increase 3.2/300; peak by SDS-PAGE and LC-MS/MS.
Experiment [6] concerns the target H. sapiens Nse4 (H. sapiens). Briefly: pull-down; H. sapiens Smc5/6 subunits co-expressed in transfected HEK293 cells (10-ml scale), one subunit tagged (N- or C-terminal); lysis buffer with Benzonase and protease inhibitors, processed as for the small-scale expression in E. coli; Coomassie-stained SDS-PAGE.

No constants are given. Whether binding was seen depends on the method and setting. Binding can be weak; no strength is given. For some assays here: In cells and extracts the contact can be indirect.

For the molecule H. sapiens Nse4, the binding result in experiment [1], in experiment [2], in experiment [3] and in experiment [4] was “binds” throughout.

B1: H. sapiens Nse1 (protein, UniProt Q8WV22 1-266)
chain: T1 sequence
In the case of B1, the binding result in experiment [5] and in experiment [6] was “binds” throughout.

B2: H. sapiens Smc6 (protein, UniProt Q96SB8 1-1091)
chain: T4 sequence
Turning to B2, in experiment [5], the binding entry is “binds”.

B3: H. sapiens Nse2 (protein, UniProt Q96MF7 1-247)
chain: T2 sequence
Consider B3, for which the binding entry in experiment [5] and in experiment [6] was “binds” in each case.

B4: H. sapiens Nse3 (protein, UniProt Q96MG7 1-304)
chain: T3 sequence
As to B4, the binding result in experiment [5] and in experiment [6] was “binds” throughout.
